{"source": "patent EP0199291A1", "about": "(priority 1985, dated 1986)", "key": {"C3H Thymocyten": {"test_system": "C3H Thymocyten", "conditions": "Concanavalin A plus 2 units IL-2; 3 days (Fig. 7)"}, "C57BL/6": {"test_system": "C57BL/6", "conditions": "5-day cultures (Fig. 1)"}, "[1]": {"test_system": "trinitrophenylierte C3H Targetzellen", "conditions": "injected into the four foot pads at immunisation; tested after 5 days (Fig. 1)"}, "[2]": {"test_system": "L 929-Zellen und Vesicular Stomatitis Virus (Indiana-Stamm)", "conditions": "control solutions with increasing amounts in culture medium"}, "CTL-Precursorzellen": {"test_system": "CTL-Precursorzellen", "conditions": "microcultures with EL-4 supernatant (2 units IL-2); Fig. 4"}, "W-2 T-Zellklon": {"test_system": "W-2 T-Zellklon", "conditions": "0,5 units IL-2; 20 h; increasing doses (Fig. 8)"}, "[3]": {"test_system": "con-A-aktivierte C3H Milzzellen", "conditions": "9 x 10^-3 mol/l; Con A 5 µg/ml; 24 h (Fig. 5)"}, "allogene C57BL/6 Zellen": {"test_system": "allogene C57BL/6 Zellen", "conditions": "Cyclophosphamide-treated C3H mice; response already relatively weak without treatment"}}, "note": "Read-outs that look alike come from different tables or passages of the source."}
{"smiles": "NCCC[C@H](N)C(=O)O", "note": "[L-Ornithin]", "values": [{"measurement": "Effekt auf die DNA-Synthese der reagierenden Lymphozyten", "setting": "C3H Thymocyten", "result": "keinen Effekt"}, {"measurement": "Wirkung auf in vitro-cytotoxische Antworten gegen allogene Targetzellen", "setting": "C57BL/6", "result": "starke suppressive Wirkung"}, {"measurement": "Wirkung auf in vivo-cytotoxische Antworten gegen haptenierte syngene Targetzellen", "setting": "[1]", "result": "starke suppressive Wirkung"}, {"measurement": "Interferon-Aktivität (of the substance itself)", "setting": "[2]", "result": "keine Interleukin-2 oder Interferon-Aktivität"}, {"measurement": "Wirkung auf in vitro-cytotoxische Antworten gegen haptenierte syngene Targetzellen", "setting": "TNP-C3H; 5-day cultures (Fig. 1)", "result": "starke suppressive Wirkung"}, {"measurement": "cytotoxische Antworten", "setting": "TNP-C3H; 9 x 10^-3 mol/l", "result": "vollständig supprimiert"}, {"measurement": "cytotoxische Antworten", "setting": "TNP-C3H; added during the first two days of the reaction", "result": "stark supprimiert"}, {"measurement": "cytotoxische Antworten", "setting": "TNP-C3H; added on day 3", "result": "wesentlich weniger gehemmt"}, {"measurement": "Effekt auf cytotoxische Antworten in IL-2-haltigen Kulturen", "setting": "CTL-Precursorzellen", "result": "starken suppressiven Effekt"}, {"measurement": "Wirkung auf die DNA-Synthese dieses T-Zellklons", "setting": "W-2 T-Zellklon", "result": "keine Wirkung"}, {"measurement": "Effekt auf die Produktion von IFN-Y", "setting": "[3]", "result": "keinen wesentlichen Effekt"}, {"measurement": "cytotoxische Antwort gegen allogene C57BL/6 Zellen in vivo", "setting": "allogene C57BL/6 Zellen", "result": "supprimiert"}]}
